Source: publication PMC6954236
These are yes or no findings as the source states them, for the method shown. Binding seen in cells or lysates may run through a third protein. A result given as binding can be weak or reduced; the word gives no strength.

By UniProt entry, the sequences of proteins in these tests, tags left out. Where a name states a change or a piece, a line headed by the entry shows the natural chain unless it says otherwise.
UniProt Q96KS0: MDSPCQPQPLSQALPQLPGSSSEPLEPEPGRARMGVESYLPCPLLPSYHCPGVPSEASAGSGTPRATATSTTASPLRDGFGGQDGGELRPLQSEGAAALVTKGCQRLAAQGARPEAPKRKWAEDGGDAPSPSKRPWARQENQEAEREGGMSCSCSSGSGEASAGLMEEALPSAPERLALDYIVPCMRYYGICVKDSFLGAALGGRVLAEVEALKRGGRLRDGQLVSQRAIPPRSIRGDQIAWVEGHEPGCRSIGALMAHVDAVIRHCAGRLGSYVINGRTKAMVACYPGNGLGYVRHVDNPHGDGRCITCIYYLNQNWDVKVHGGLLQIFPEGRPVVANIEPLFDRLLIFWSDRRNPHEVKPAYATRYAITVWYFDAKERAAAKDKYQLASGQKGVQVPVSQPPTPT
UniProt Q9P2J5: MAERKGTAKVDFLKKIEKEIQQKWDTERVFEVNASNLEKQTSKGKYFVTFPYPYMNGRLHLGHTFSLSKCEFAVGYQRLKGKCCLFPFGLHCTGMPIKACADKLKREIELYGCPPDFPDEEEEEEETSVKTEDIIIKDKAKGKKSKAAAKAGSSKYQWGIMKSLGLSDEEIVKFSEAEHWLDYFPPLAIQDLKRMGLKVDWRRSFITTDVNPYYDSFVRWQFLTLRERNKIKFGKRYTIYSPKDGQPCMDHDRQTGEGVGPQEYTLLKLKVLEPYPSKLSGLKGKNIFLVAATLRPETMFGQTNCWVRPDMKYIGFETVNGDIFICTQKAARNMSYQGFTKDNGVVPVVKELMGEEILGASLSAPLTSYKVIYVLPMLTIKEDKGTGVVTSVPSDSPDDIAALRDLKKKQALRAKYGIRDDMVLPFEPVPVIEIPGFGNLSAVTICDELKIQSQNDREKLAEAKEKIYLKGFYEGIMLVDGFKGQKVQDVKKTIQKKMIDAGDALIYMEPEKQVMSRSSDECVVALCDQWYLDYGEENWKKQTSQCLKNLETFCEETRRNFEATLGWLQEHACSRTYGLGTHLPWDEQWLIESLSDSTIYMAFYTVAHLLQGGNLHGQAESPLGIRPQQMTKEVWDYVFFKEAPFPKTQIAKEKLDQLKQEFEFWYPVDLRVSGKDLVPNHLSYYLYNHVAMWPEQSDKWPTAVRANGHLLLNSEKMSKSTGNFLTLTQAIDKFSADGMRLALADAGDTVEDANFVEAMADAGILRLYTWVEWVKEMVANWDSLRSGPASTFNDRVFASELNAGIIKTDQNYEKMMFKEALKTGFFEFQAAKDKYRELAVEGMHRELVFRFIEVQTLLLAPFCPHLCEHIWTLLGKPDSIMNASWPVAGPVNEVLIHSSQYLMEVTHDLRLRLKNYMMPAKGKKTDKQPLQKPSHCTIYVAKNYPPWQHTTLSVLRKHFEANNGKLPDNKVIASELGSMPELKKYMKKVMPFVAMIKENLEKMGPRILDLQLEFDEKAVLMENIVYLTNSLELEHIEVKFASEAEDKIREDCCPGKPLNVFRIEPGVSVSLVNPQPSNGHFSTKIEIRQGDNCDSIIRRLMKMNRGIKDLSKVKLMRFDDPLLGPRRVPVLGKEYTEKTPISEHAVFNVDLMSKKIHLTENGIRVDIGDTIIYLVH

Biological target: flag-PHD1^MUT (catalytically inactive PHD1 mutant) (UniProt Q96KS0)
Assay: co-IP; HEK293T co-transfected with Myc-LRS and flag-PHD1 (WT or MUT) for 72 h; 300 µg lysate protein on ANTI-FLAG M2 Affinity Gel at 4 °C overnight; washed 3 times in lysis buffer with 50 mM NaCl added; blot with anti-myc; cells untreated, treated with DMOG or amino acid starved for 4 h

myc-LRS (leucyl tRNA synthetase) (from UniProt Q9P2J5 1-1176) (enzyme)
binding: binds
